# Data taken from EP0987025A1, “Pharmaceitical composition or composition package containing a pyrimidine nucleoside analogue and a purine nucleoside analogue” (priority 1998, dated 2000).
# At least one structure is not confirmed: it was looked up by name or label, or the drawing left a doubt.
# Key:
# Format in all cases: in vivo, C57BL/6 mice
# Spleen lymphocytes = experiment: DNA synthesis of spleen lymphocytes after mitogenic stimuli (PHA, LPS)
# circulating B cells = experiment: Flow cytometry of circulating lymphocytes; details: LP-BM5 infected mice, groups a-d of Table III (Fig. 3)
# Excerpt: Whole blood samples were stained with antimouse L3T4/CD4 fluorescein isothiocyanate (FITC) conjugated (Boehringer Mannheim Biochemica) for the detection of CD4^+ lymphocytes, antimouse Ly-2R phycoerythrin (PE) conjugated (Boehringer Mannheim Biochemica) for the detection of CD8a lymphocytes, antimouse Thy-1.2 FITC conjugated (Boehringer Mannheim Biochemica) for the detection of T cells, and antimouse Ly 5 (B220)-PE Monoclonal antibody (Cederlane, Ontario, Canada) for the detection of committed B cell precursors. Samples were analyzed by FACS (Becton Dickinson).
# LP-BM5 = experiment: Histopathological examination of liver and lymph node sections; details: LP-BM5 infected mice, groups a-d of Table III
# Excerpt: Samples of lymph nodes and liver from three animals in each treatment group were fixed in 4% paraformaldehyde in phosphate-buffered saline, sectioned, and stained with May Grunwald-Giemsa.
compound,measurement,setting,value
"Nc1nc(F)nc2c1ncn2[C@@H]1O[C@H](COP(=O)(O)O)[C@@H](O)[C@@H]1O [F-ara-AMP, Fludarabine phosphate]",Spleen lymphocyte response to mitogenic stimuli,Spleen lymphocytes; administered intraperitoneally (Fig. 4),not improved
same,Spleen lymphocyte response to mitogenic stimuli,Spleen lymphocytes; oral administration (Fig. 4),slightly improved
same,circulating B cells,circulating B cells,strongly reduces
same,lymphoid infiltrates in liver and lymph nodes sections,LP-BM5,able to reduce lymphoid infiltrates
